The supplement of paper PMC3334620
In all, about 33,000 sequences were measured (“E-score (-0.5 to 0.5)”: median about -0.016, highest 2% from about 0.3 on). The list shows a part of the results.

The sequences below were run against T1, Yer184c (UniProt P39961) (assay: PBM E-score (8-mer binding enrichment) (E-score (-0.5 to 0.5)); higher = stronger / more preferred TF binding). Settings: protein concentration: 100 nM; construct: GST-full length.
T1 sequence: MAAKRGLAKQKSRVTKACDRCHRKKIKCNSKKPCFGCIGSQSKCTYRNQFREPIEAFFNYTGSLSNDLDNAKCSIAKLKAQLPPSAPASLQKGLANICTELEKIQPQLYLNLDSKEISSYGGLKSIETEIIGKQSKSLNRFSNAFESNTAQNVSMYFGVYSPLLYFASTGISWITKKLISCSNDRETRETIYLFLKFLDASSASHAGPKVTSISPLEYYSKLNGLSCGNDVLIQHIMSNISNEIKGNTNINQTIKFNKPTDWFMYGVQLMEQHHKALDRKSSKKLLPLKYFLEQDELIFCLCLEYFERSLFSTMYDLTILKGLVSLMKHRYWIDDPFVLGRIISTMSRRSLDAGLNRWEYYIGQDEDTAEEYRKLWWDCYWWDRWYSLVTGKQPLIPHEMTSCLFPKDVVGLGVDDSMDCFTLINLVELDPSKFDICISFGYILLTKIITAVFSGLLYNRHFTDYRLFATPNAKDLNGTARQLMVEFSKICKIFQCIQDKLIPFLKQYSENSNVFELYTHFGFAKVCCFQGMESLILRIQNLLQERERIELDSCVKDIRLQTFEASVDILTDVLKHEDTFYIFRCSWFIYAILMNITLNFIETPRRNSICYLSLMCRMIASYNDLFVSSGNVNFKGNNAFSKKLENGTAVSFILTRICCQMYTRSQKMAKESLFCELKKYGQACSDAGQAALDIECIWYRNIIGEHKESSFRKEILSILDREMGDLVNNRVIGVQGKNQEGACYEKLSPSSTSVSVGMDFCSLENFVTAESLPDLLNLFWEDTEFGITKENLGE
How it was run: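 Universal all-10-mer Agilent arrays, double-stranded by primer extension on fresh or once-stripped slides, were probed with about 100-200 nM GST-tagged yeast transcription factors made by PURExpress. Fluorescent anti-GST detected bound protein, and masliner normalised the scans. E-scores from the Universal PBM Analysis Suite were given to each ungapped eight-base word pooled with its reverse complement.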

| Sequence | PBM E-score |
| --- | --- |
| CCCTCTAC | -0.263 |
| AATGATTC | 0.107 |
| CAAACGGC | -0.0527 |
| CCTGTGAC | -0.223 |
| ATTGAAGG | 0.0279 |
| AAGCTGAC | 0.0973 |
| CCGGCATC | 0.322 |
| GAGATTGC | -0.184 |
| AGCGTAGC | -0.142 |
| AATAGCGG | 0.0178 |
| GAGTATTA | 0.0672 |
| CTCCGCCC | 0.012 |
| CCTTCGTC | -0.0787 |
| GCAGAGTA | 0.0284 |
| GGAAAAGA | 0.0935 |
| ATTACGGA | 0.252 |
| AGGATCTA | -0.166 |
| GGCCGCAC | 0.0332 |
| TCGTAACA | 0.0581 |
| GATGTAAA | 0.0689 |
| AATCCCGT | 0.189 |
| TATGATCA | 0.185 |
| AGAGGTAA | -0.0922 |
| GATCCGAA | 0.375 |
| AGGGAAAC | -0.0715 |

A run of entries from further up, as a working copy:

| Sequence | PBM E-score |
| --- | --- |
| GAGTATTA | 0.0672 |
| CTCCGCCC | 0.012 |
| CCTTCGTC | -0.0787 |
| GCAGAGTA | 0.0284 |
| GGAAAAGA | 0.0935 |
| ATTACGGA | 0.252 |

(cont.)

| Sequence | PBM E-score |
| --- | --- |
| ATGGAACA | -0.0156 |
| CCCTTAGC | -0.187 |
| CACTAAAA | 0.0457 |
| CGTTAAAC | 0.00583 |
| GGCCGAAA | 0.398 |
| CTCCTTGC | -0.252 |
| AACGAAGA | 0.121 |
| CCTATGGC | -0.19 |
| AAACGGTC | 0.0418 |
| AGAATGGG | -0.133 |
| GCCGCGCA | 0.0353 |
| ACTCAGGA | -0.0812 |
| AAGATCGG | 0.182 |
| GCGGTAAC | 0.199 |
| AAAACGTG | -0.123 |
| CTCACTGA | -0.106 |
| GGGCAGAC | -0.114 |
| CACCGGCC | 0.177 |
| GGCAGTGA | -0.151 |
| AAAAGTTA | 0.0959 |
| ACTTTCGA | 0.0448 |
| GCGTACGC | 0.00072 |
| AATCGGCA | 0.289 |
| CAAAAGAG | -0.0784 |
| CCTACAGG | -0.253 |

| Sequence | PBM E-score |
| --- | --- |
| TCTTTCCA | -0.0543 |
| CCAGCCCG | -0.115 |
| AAAGGTAA | 0.0263 |
| ATAACAAG | 0.209 |
| CGATGGAC | 0.113 |
| AATTCAAC | 0.226 |
| CTCCGGAA | 0.402 |
| GACTACGC | -0.141 |
| ACTATCCG | 0.269 |
| ATATTTGG | 0.129 |
| TAAACCAA | 0.152 |
| ATTTACTC | 0.0684 |
| AGCGTAAT | 0.0454 |
| CGGCTGCC | 0.266 |
| AGGATGTG | -0.0471 |
| ACGGGCCG | 0.135 |
| GATTTAGC | 0.0343 |
| TCCAGTCA | -0.168 |
| CCAACGGG | 0.0016 |
| CGGTATCA | 0.177 |
| GACGTCCC | -0.192 |
| AGAACATG | 0.0772 |
| AGGTCGGA | 0.0471 |
| TGCTTAAA | 0.148 |
| GCCCTTCA | -0.0881 |

| Sequence | PBM E-score |
| --- | --- |
| CATGTATC | -0.0608 |
| ATTATGAG | 0.00279 |
| ATCCACAG | -0.118 |
| AAAGTTGT | 0.247 |
| AACGAGGC | -0.216 |
| AGTCTTCA | -0.0522 |
| AGTAGGGG | -0.196 |
| GGCTGTGA | -0.0945 |
| GAGCAACC | -0.0388 |
| ATTGAATA | 0.24 |
| ATTAGACG | -0.0239 |
| CGAACGGC | 0.255 |
| GCATGACA | -0.014 |
| CTTCGGCC | 0.272 |
| ATAGACAT | -0.0412 |
| GGAGACCC | -0.284 |
| GATTGCCA | -0.0755 |
| AACCAAAT | 0.113 |
| CTGCGTTA | -0.121 |
| ACTCGTCG | -0.179 |
| TATTTTCA | 0.209 |
| TCTGGGAA | -0.0416 |
| AGCTACCT | -0.0785 |
| ATTGCGAG | -0.0585 |
| AATCGACA | 0.252 |

| Sequence | PBM E-score |
| --- | --- |
| CACACCAA | 0.0835 |
| GCCACCAA | -0.0477 |
| ATGTCATA | -0.0308 |
| GTTCTAGA | 0.159 |
| CTGCTCCA | -0.0246 |
| TCGTCGAA | -0.0345 |
| AGCTTTTG | 0.0231 |
| CACTAGGG | -0.28 |
| GGACACAC | -0.079 |
| AGTACAAC | 0.102 |
| ACTCAGGG | -0.195 |
| CGAGCGCG | 0.0652 |
| CCTAGTTC | -0.0645 |
| CAATGCGG | 0.103 |
| AAGTATAG | -0.242 |
| AGAGCGTG | -0.0685 |
| CCATGACC | -0.346 |
| AGCCGCGC | 0.103 |
| ACACAGGT | -0.289 |
| ATAAGTAG | -0.0314 |
| AGTGGGAC | -0.197 |
| AGGTGGCC | -0.225 |
| CACAAGGG | -0.272 |
| ATGCGAAA | 0.136 |
| CTTATCTA | 0.0972 |

| Sequence | PBM E-score |
| --- | --- |
| GGCCCGCA | 0.0681 |
| CCTTCCAG | -0.246 |
| AGATGCCA | -0.178 |
| AATGAAGA | 0.17 |
| GAGTCTTA | -0.0926 |
| GGTCTCCA | -0.118 |
| AATTACGA | 0.0132 |
| CCTTGACG | -0.133 |
| CGACGCAG | -0.0485 |
| TCCCGTAA | 0.192 |
| AGAGAAAG | -0.0556 |
| AACTGCAC | 0.119 |
| AACAGCTG | 0.0223 |
| GCTGAAGA | 0.0275 |
| CAGCTACC | -0.113 |
| ATTGCTCA | 0.147 |
| CAATCCGG | 0.316 |
| ATTTGCTC | 0.132 |
| AGATTGTG | -0.0812 |
| CACCTAAC | 0.0534 |
| CTGGTTTA | -0.126 |
| TCTCGACA | 0.00853 |
| AGTACACA | 0.0896 |
| GCTTTCGA | -0.0696 |
| CAACTGTA | -0.0664 |

| Sequence | PBM E-score |
| --- | --- |
| CCACTTCG | -0.0424 |
| ATTGTTTC | 0.324 |
| ATGTCAGG | -0.0372 |
| CCCGAGGA | 0.0175 |
| AGCTGCCA | -0.0231 |
| CAAACTAC | -0.187 |
| GCTCCCAC | -0.104 |
| CGTTCCGC | 0.262 |
| CCCACTTA | -0.0602 |
| CGCAACAG | 0.00982 |
| CCAGATCG | -0.184 |
| ATTTTCAA | 0.204 |
| ACATAGAA | -0.0408 |
| AAGACAAA | 0.0557 |
| CAGCGGAC | 0.0951 |
| CACTAAAG | -0.00889 |
| CTTTGATC | -0.0541 |
| TAAAGGTA | 0.0092 |
| ATACCTCA | -0.149 |
| ATTACAAC | 0.0687 |
| CTGGATTC | 0.00297 |
| ACTTCCTC | -0.122 |
